PubChem BioAssay AID1259254, NCATS | 2017

Test: 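Genome-wide screen for genes that prevent DNA re-replication in cancer cells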 (primary screen)
Cells: human HCT116 colorectal cancer cells
Reagents: single siRNA against human genes
Time to read-out: 3 days
Measurement: 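Imaged Hoechst DNA stain sorts each cell into a cycle phase by DNA amount; per plate, G2 fraction set to 0% for non-targeting and 100% for GMNN siRNA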
Direction: G2 robust z-score and G2 cells, % of GMNN control: higher = more G2 cells, more excess DNA replication; raw share of cells in G2: higher = larger share of cells with G2 DNA content
Call rule: 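Active siRNAs have a G2 robust z of 5 or more median absolute deviations over the median, which in these data means about 38% or higher of GMNN control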
Shown is a random part of about 59,000 reagents. About 1,550 of all reagents (2.6%) were called active. 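G2 share is only a proxy for re-replication; each gene was hit by three separate siRNAs, and active genes were retested.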 The raw values are shown without normalisation. The numbers tell different reagents against one gene apart. Not given: the amount of reagent.

gene,reagent no.,G2 robust z-score,"G2 cells, % of GMNN control",raw share of cells in G2 (%),Call
"PSMD2 (proteasome 26S subunit ubiquitin receptor, non-ATPase 2)",1,1.24,11.7,8.04,inactive
"PSMD2 (proteasome 26S subunit ubiquitin receptor, non-ATPase 2)",2,1.86,16.1,10.8,inactive
"PSMD2 (proteasome 26S subunit ubiquitin receptor, non-ATPase 2)",3,1.42,13,9.43,inactive
GALNT17 (polypeptide N-acetylgalactosaminyltransferase 17),1,3.18,25.4,16.2,inactive
GALNT17 (polypeptide N-acetylgalactosaminyltransferase 17),2,-0.874,-3.18,3.22,inactive
GALNT17 (polypeptide N-acetylgalactosaminyltransferase 17),3,0.788,8.51,7.32,inactive
CAPN8 (calpain 8),1,-0.526,-0.737,3.52,inactive
CAPN8 (calpain 8),2,0.488,6.4,6.19,inactive
CAPN8 (calpain 8),3,0.257,4.78,6.68,inactive
CAPN8 (calpain 8),4,0.702,7.9,6.65,inactive
CAPN8 (calpain 8),5,-0.707,-2.01,2.55,inactive
CAPN8 (calpain 8),6,-1.43,-7.13,1.07,inactive
CBLC (Cbl proto-oncogene C),1,0.0672,3.44,7.72,inactive
CBLC (Cbl proto-oncogene C),2,-0.0251,2.79,5.11,inactive
CBLC (Cbl proto-oncogene C),3,-0.324,0.685,4.21,inactive

Next part (4 carried over from the part before).
gene,reagent no.,G2 robust z-score,"G2 cells, % of GMNN control",raw share of cells in G2 (%),Call
CAPN8 (calpain 8),6,-1.43,-7.13,1.07,inactive
CBLC (Cbl proto-oncogene C),1,0.0672,3.44,7.72,inactive
CBLC (Cbl proto-oncogene C),2,-0.0251,2.79,5.11,inactive
CBLC (Cbl proto-oncogene C),3,-0.324,0.685,4.21,inactive
TIMM29 (translocase of inner mitochondrial membrane 29),1,-0.662,-1.69,3.37,inactive
TIMM29 (translocase of inner mitochondrial membrane 29),2,1.71,15,7.69,inactive
TIMM29 (translocase of inner mitochondrial membrane 29),3,0.271,4.87,4.47,inactive
C22orf39 (chromosome 22 open reading frame 39),1,0.483,6.37,6.58,inactive
C22orf39 (chromosome 22 open reading frame 39),2,2.1,17.7,8.72,inactive
C22orf39 (chromosome 22 open reading frame 39),3,-0.491,-0.485,2.4,inactive
OR4C6 (olfactory receptor family 4 subfamily C member 6),1,-0.0324,2.74,4.57,inactive
OR4C6 (olfactory receptor family 4 subfamily C member 6),2,0.663,7.63,5.74,inactive
OR4C6 (olfactory receptor family 4 subfamily C member 6),3,1.58,14.1,7.69,inactive
TAGLN2 (transgelin 2),1,-0.813,-2.75,3.29,inactive
TAGLN2 (transgelin 2),2,0.68,7.75,7.48,inactive
TAGLN2 (transgelin 2),3,-1.1,-4.77,3.59,inactive
HABP2 (hyaluronan binding protein 2),1,-1.39,-6.81,3.18,inactive
HABP2 (hyaluronan binding protein 2),2,0.317,5.2,6.75,inactive
HABP2 (hyaluronan binding protein 2),3,-0.00771,2.91,5,inactive
